Source: the supplement of paper PMC10849652
The other results are listed elsewhere or left out.

Amino acid sequences for entries named in this document (tags omitted). A change or cut given only in a name is not applied to a line headed by its entry.
UniProt Q9BRZ2: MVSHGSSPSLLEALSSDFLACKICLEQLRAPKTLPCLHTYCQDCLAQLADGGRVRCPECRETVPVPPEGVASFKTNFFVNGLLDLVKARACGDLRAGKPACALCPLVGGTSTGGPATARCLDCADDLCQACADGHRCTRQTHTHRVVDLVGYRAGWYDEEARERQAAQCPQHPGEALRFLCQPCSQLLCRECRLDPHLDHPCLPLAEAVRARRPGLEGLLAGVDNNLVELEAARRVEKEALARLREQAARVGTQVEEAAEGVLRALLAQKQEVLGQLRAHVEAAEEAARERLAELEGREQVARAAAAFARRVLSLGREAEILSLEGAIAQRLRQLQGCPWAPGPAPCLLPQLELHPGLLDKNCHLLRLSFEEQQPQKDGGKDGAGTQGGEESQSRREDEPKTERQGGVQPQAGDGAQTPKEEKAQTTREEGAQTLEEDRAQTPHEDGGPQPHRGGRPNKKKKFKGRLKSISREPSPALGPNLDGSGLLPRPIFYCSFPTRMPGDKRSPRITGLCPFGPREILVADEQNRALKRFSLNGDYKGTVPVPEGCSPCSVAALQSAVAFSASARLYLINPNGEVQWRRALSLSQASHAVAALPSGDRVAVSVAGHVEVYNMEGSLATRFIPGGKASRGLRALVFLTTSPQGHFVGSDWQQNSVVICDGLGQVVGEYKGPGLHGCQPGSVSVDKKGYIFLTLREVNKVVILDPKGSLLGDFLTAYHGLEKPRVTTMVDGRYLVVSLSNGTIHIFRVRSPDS
UniProt Q8IUR0, whole entry, looked up: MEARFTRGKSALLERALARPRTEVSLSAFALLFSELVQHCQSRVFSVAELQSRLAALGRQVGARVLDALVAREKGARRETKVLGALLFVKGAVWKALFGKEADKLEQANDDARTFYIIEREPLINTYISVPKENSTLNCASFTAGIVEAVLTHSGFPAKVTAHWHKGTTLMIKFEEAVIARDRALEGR
UniProt P29144: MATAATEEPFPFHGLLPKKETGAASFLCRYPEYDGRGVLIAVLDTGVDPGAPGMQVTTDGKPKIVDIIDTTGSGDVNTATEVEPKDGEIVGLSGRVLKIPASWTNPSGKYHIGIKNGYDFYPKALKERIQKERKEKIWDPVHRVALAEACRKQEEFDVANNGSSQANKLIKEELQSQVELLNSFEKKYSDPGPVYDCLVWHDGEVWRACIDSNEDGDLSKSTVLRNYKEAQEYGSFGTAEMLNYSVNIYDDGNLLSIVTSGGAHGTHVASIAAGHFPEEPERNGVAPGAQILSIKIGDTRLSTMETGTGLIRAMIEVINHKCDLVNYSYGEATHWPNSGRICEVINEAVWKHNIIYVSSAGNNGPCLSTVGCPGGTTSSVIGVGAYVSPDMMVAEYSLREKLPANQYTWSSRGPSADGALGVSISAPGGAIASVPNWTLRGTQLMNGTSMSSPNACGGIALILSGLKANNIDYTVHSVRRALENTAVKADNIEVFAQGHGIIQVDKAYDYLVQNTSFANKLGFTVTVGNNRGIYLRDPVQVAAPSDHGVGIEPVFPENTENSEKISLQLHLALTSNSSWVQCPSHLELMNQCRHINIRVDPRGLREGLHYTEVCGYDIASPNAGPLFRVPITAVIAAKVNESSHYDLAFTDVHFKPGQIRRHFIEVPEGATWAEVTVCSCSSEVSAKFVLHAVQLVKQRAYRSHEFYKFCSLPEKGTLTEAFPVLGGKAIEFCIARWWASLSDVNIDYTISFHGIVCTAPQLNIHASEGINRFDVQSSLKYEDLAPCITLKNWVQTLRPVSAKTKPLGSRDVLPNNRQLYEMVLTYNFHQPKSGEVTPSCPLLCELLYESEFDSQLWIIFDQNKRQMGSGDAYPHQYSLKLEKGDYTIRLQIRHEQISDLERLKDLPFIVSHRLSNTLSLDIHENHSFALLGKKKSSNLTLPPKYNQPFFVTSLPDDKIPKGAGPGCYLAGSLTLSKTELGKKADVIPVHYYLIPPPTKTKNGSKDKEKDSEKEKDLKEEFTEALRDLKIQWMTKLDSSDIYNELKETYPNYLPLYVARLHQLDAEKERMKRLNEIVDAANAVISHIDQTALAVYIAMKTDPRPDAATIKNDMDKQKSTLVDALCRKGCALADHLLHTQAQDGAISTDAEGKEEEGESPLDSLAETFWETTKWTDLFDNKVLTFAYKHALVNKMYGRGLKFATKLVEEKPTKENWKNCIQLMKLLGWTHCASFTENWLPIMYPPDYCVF
UniProt Q9Y3Q8: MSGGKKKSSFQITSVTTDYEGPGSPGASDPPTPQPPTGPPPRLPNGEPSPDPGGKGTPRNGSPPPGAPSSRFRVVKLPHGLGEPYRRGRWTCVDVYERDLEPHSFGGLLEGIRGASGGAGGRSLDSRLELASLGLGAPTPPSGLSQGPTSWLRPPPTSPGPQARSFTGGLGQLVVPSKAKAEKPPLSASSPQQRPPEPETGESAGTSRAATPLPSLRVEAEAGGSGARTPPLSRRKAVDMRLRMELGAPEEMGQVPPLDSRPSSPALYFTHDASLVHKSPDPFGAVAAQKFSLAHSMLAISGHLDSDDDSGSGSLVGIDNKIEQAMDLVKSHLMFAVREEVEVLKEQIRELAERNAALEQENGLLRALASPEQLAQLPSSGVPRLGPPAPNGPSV
UniProt Q9NS69: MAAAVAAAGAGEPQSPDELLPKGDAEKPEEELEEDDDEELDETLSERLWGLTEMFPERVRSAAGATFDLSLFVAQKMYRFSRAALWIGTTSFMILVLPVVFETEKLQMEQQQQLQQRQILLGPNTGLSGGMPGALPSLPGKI
UniProt P48553, whole entry, looked up: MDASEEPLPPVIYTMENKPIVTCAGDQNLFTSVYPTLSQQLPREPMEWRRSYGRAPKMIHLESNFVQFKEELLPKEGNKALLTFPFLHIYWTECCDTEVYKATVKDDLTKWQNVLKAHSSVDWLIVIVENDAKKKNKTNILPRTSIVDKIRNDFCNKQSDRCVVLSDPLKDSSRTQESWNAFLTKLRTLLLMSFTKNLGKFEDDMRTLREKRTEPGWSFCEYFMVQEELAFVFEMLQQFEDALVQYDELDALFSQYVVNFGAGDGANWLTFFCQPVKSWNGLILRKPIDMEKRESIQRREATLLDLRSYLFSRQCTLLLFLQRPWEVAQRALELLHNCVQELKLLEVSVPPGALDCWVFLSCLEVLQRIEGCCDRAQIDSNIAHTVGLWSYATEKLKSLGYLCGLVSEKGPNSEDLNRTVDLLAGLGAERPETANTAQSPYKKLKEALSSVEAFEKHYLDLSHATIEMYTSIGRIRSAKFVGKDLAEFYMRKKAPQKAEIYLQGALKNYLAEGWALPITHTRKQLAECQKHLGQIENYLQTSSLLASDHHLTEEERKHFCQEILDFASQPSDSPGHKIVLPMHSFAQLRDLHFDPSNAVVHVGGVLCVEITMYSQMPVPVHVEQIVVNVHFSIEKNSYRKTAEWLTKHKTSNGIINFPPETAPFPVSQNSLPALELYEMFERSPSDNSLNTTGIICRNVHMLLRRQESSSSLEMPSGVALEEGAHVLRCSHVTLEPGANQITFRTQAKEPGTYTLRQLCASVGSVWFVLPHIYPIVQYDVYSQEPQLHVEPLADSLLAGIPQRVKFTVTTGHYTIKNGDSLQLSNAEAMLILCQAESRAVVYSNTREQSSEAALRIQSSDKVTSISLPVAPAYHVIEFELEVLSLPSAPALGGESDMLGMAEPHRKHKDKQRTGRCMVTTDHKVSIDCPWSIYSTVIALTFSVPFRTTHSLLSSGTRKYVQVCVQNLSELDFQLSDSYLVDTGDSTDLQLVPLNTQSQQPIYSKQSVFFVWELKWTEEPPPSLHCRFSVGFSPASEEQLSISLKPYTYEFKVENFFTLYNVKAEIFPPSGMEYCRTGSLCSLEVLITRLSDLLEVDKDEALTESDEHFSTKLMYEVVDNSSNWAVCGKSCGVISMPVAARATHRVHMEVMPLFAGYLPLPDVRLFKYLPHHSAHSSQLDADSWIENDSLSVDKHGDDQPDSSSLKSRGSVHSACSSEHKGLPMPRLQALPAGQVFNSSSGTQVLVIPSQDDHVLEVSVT
UniProt Q8WVT3: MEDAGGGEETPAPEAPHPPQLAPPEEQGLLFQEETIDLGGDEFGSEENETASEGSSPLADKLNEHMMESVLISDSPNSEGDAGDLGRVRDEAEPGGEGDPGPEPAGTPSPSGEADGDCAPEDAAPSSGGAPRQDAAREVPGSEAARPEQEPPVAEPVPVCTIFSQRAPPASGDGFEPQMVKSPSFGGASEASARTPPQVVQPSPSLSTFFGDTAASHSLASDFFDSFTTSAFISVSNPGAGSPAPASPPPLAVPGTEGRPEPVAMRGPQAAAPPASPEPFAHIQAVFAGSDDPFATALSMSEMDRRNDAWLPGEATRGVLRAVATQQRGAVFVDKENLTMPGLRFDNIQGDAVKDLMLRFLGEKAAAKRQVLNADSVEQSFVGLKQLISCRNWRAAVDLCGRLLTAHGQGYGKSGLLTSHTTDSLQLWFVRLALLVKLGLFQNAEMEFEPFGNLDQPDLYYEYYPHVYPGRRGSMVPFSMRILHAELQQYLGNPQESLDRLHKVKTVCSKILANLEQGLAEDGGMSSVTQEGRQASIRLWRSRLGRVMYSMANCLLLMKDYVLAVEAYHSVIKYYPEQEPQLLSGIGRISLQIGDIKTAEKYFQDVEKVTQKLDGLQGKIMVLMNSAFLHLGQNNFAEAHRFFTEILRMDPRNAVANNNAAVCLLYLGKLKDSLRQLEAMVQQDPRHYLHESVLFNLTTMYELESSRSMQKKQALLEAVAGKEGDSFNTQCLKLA
UniProt Q9Y5S1: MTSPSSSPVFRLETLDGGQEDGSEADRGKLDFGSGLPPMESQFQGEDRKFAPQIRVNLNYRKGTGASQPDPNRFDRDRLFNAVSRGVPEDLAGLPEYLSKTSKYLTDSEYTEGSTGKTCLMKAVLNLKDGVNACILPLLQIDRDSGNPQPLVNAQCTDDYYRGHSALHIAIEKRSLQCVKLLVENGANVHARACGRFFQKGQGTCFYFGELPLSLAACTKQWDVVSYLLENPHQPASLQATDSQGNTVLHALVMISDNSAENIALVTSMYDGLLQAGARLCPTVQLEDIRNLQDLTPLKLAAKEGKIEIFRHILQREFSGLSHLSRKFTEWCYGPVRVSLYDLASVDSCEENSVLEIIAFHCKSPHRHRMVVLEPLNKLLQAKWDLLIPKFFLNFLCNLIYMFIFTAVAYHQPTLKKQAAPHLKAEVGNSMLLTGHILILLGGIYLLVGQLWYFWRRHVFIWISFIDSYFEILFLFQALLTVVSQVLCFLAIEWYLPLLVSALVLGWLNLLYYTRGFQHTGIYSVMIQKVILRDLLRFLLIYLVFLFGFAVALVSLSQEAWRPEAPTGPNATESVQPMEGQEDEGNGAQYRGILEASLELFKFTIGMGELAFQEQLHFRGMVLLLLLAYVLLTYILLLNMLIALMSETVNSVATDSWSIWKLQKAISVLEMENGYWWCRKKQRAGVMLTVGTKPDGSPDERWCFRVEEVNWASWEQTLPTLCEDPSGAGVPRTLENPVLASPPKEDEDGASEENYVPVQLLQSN
UniProt Q5JU69: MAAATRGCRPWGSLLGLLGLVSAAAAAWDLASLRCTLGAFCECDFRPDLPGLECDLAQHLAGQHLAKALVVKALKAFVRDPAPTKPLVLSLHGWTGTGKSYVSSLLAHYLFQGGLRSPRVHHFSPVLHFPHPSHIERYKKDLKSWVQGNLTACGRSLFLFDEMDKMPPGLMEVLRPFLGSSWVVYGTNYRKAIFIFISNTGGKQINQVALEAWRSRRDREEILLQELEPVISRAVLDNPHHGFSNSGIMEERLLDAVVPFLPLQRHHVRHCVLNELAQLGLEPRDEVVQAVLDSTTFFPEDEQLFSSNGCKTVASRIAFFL
UniProt Q15650: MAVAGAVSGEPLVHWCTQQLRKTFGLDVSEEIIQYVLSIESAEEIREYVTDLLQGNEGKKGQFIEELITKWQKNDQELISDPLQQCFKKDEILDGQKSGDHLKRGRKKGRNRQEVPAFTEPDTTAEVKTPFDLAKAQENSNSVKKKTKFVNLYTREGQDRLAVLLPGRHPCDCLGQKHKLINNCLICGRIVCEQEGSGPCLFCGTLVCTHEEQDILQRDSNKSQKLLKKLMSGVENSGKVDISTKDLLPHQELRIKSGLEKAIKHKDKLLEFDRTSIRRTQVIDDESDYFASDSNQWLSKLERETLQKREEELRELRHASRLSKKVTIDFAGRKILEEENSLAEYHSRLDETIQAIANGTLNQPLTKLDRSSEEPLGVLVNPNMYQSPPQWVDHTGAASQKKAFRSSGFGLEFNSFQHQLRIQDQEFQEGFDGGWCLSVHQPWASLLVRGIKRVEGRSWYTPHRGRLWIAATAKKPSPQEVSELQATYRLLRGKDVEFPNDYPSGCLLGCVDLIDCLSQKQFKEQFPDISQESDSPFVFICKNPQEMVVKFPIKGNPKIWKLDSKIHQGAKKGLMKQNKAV
UniProt Q9BQ61: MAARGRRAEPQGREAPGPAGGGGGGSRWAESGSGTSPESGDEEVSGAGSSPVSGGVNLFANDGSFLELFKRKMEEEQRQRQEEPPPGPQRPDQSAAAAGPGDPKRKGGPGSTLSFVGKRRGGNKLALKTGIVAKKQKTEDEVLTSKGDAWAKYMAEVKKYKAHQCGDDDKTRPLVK

Each target was assayed with C#Cc1cccc(Nc2ncnc3cc(OCCOC)c(OCCOC)cc23)c1 [erlotinib] (assay: log2 fold change, soluble protein after heating vs DMSO (PISA); higher = thermal stabilisation; K562 cells, 10 uM, 30 min; active = over 0.2 and 3.5 SD of the protein, either way, in both replicates (recomputed)).
How it was run: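 Quantification of soluble protein used TMTpro 16plex LC-MS/MS, with channel sums equalised. Samples were the supernatant after 21,000xg for 90 min of pooled aliquots from K562 cells (2×10^6 cells/mL) treated with 10 μM compound for 30 min, heated for 3 min over 48°C-58°C, and extracted in PBS with 0.5% NP-40 at 4°C. Values, from duplicates, describe thermal stability against control samples on a log2 fold-change scale.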

log2 fold change, inactive:
TP53RK (UniProt Q96S44) 0.021, TOR4A (UniProt Q9NXH8) -0.031, TRIM56 (UniProt Q9BRZ2) -0.062, TRAPPC5 (UniProt Q8IUR0) 0.015, TPST2 (UniProt O60704) 0, TRMT13 (UniProt Q9NUP7) -0.005, TPP2 (UniProt P29144) -0.074, TNFRSF1B (UniProt P20333) -0.08, TSC22D4 (UniProt Q9Y3Q8) -0.048, TSC22D2 (UniProt O75157) -0.012, TSEN15 (UniProt Q8WW01) 0.026, TRMT6 (UniProt Q9UJA5) 0.024, TOMM22 (UniProt Q9NS69) 0.031, TRAPPC10 (UniProt P48553) -0.079, TRIM25 (UniProt Q14258) 0.031, TPM3 isoform 2 (UniProt P06753) -0.035, TRAPPC12 (UniProt Q8WVT3) 0.015, TRMU (UniProt O75648) 0.012, TP53BP2 isoform 3 (UniProt Q13625) 0.017, TRMT11 (UniProt Q7Z4G4) -0.028, TOR1AIP2 (UniProt Q8NFQ8) -0.056, TPM3 isoform 4 (UniProt P06753) 0.001, TRPV2 (UniProt Q9Y5S1) 0.01, TPM1 (UniProt H7BYY1) -0.015, TPCN1 isoform 3 (UniProt Q9ULQ1) 0.04, TOR2A (UniProt Q5JU69) 0.046, TRIP4 (UniProt Q15650) 0.057, TOR1AIP1 isoform 3 (UniProt Q5JTV8) -0.02, TOR1A (UniProt O14656) 0.018, TPI1 (UniProt P60174) -0.032, TRIR (UniProt Q9BQ61) -0.031, TOP2B (UniProt Q02880) 0.04
